These are yes or no findings as the source states them, for the method shown. In cells and extracts the contact can be indirect. Some binding calls cover weakened binding; strength is not graded here. For some of these results: Tags and fused reporters may be left off the sequences shown.
T1: Myc/DDK tagged FBXO32 (UniProt Q969P5)
T1 sequence: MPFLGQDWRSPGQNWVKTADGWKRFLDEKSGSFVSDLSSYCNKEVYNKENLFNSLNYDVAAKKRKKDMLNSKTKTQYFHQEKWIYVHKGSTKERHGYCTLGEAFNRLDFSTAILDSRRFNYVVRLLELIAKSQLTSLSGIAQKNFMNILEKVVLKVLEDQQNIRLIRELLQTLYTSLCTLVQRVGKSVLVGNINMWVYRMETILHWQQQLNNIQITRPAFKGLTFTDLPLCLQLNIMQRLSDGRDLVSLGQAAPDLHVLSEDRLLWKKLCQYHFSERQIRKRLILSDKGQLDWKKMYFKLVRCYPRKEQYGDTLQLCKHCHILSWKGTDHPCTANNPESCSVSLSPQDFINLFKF

Chains of the proteins cited; added tags and fusions are not shown.
UniProt P51532: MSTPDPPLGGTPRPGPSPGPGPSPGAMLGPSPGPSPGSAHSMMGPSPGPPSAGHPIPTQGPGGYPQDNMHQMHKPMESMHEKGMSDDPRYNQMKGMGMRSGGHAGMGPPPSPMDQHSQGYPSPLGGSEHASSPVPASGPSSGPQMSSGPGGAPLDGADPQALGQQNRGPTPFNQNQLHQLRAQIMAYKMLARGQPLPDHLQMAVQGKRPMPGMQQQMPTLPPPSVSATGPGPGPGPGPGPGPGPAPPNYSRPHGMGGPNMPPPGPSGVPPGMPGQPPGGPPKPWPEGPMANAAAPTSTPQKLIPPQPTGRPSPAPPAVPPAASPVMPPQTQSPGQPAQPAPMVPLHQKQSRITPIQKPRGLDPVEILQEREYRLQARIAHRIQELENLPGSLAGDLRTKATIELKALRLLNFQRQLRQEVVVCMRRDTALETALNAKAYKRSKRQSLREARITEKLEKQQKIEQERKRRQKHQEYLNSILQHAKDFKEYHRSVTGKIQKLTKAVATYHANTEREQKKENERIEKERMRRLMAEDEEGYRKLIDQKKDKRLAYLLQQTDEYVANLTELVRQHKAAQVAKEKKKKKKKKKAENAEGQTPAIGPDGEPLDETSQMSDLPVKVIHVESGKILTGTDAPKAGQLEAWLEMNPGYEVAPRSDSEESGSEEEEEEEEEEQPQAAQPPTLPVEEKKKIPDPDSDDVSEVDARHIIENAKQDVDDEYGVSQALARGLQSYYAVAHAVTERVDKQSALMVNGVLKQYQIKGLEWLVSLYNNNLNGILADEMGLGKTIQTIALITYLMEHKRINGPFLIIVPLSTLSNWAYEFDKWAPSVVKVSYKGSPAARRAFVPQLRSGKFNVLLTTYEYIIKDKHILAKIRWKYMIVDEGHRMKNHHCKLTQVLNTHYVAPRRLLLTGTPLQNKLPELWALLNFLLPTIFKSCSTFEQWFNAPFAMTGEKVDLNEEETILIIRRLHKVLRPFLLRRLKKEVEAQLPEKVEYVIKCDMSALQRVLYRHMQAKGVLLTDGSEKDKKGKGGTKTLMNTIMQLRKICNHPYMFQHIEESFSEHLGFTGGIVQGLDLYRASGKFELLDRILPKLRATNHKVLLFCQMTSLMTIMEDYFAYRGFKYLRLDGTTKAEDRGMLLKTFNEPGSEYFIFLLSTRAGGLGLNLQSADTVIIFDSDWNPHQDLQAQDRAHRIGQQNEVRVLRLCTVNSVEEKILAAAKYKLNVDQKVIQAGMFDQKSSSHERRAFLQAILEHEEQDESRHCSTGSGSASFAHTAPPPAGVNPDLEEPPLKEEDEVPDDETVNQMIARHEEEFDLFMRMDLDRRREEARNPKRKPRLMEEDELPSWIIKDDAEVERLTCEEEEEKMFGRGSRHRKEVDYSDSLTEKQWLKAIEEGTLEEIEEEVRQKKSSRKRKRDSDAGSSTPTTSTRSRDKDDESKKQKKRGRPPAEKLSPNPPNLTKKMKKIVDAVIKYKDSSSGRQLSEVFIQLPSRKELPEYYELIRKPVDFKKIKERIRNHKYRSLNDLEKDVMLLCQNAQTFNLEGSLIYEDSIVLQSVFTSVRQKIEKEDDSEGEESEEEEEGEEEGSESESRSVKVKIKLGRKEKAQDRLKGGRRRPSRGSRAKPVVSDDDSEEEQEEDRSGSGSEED
UniProt Q96GM5: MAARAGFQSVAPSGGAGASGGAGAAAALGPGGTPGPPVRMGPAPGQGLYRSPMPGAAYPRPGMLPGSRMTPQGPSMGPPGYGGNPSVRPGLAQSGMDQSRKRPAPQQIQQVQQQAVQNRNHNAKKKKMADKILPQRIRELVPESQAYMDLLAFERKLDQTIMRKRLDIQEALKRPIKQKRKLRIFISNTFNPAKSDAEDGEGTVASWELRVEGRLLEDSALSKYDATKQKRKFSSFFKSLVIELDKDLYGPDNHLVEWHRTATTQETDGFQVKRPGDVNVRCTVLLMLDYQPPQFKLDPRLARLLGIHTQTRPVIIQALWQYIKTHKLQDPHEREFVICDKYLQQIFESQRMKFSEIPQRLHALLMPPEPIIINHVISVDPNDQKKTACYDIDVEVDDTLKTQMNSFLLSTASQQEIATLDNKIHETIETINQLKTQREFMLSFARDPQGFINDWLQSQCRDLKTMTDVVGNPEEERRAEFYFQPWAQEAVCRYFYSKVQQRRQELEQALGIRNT


Experiments:
[1] = target: T1, Myc/DDK tagged FBXO32; assay: co-IP; immunoprecipitation with anti-DDK from SKmel28 cells transduced with Myc/DDK-tagged FBXO32 vector, western blot; control cells without tagged FBXO32
[2] = target: BRG1 (SMARCA4) (human (endogenous in 501Mel)) (UniProt P51532); assay: co-IP; endogenous proteins in 501Mel total extract; immunoprecipitated with BRG1 or control antibody; western blot with anti-BRG1 and anti-FBXO32
[3] = target: SMARCA4 (BRG1) (human (endogenous in SKmel28 and 501Mel)) (UniProt P51532); assay: co-IP; endogenous proteins in 501Mel cells, immunoprecipitation with anti-BRG1 antibody

Molecule | binding [1] | other results
FBXO32 (protein, UniProt Q969P5 1-355) MPFLGQDWRSPGQNWVKTADGWKRFLDEKSGSFVSDLSSYCNKEVYNKENLFNSLNYDVAAKKRKKDMLNSKTKTQYFHQEKWIYVHKGSTKERHGYCTLGEAFNRLDFSTAILDSRRFNYVVRLLELIAKSQLTSLSGIAQKNFMNILEKVVLKVLEDQQNIRLIRELLQTLYTSLCTLVQRVGKSVLVGNINMWVYRMETILHWQQQLNNIQITRPAFKGLTFTDLPLCLQLNIMQRLSDGRDLVSLGQAAPDLHVLSEDRLLWKKLCQYHFSERQIRKRLILSDKGQLDWKKMYFKLVRCYPRKEQYGDTLQLCKHCHILSWKGTDHPCTANNPESCSVSLSPQDFINLFKF |  | binding [2]: binds
FBXO32 (endogenous) (protein, UniProt Q969P5 1-355) MPFLGQDWRSPGQNWVKTADGWKRFLDEKSGSFVSDLSSYCNKEVYNKENLFNSLNYDVAAKKRKKDMLNSKTKTQYFHQEKWIYVHKGSTKERHGYCTLGEAFNRLDFSTAILDSRRFNYVVRLLELIAKSQLTSLSGIAQKNFMNILEKVVLKVLEDQQNIRLIRELLQTLYTSLCTLVQRVGKSVLVGNINMWVYRMETILHWQQQLNNIQITRPAFKGLTFTDLPLCLQLNIMQRLSDGRDLVSLGQAAPDLHVLSEDRLLWKKLCQYHFSERQIRKRLILSDKGQLDWKKMYFKLVRCYPRKEQYGDTLQLCKHCHILSWKGTDHPCTANNPESCSVSLSPQDFINLFKF |  | binding [3]: binds

Continued, in another order:

binding [1] | Molecule | other results
binds | SMARCA4 (BRG1) (from UniProt P51532 1-1647) | 
binds | SMARCD1 (BAF60a) (from UniProt Q96GM5 1-515) | 

Reference: publication PMC8184796
